Measurements from “University of Dundee, Small-Polar-MMV Screening Library” (2021), ChEMBL document CHEMBL3988442.

T. brucei: 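Whole-parasite assay of Trypanosoma brucei over 72 hours; the read-out is not stated. Tested at 30 µM. Higher reads as stronger inhibition (inferred: compounds with an IC50 in retests scored well above the rest). Values scatter widely below zero; nearly all retest evidence comes from the higher of the two concentrations used. Size under these conditions: about 64,000 compounds, about 940 of them at 50% or above in at least one test.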
Toxoplasma: 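Assay of Toxoplasma gondii numbers, read through their beta-galactosidase reporter with a colour substrate. Tested at 10 µM. The record gives no direction; the compounds picked for IC50 retests had high values, so higher reads as fewer parasites. Of about 67,000 compounds tested this way, about 260 (0.38%) reached 50% or more in at least one test.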
Leishmania in macrophages: 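Cell assay of Leishmania donovani living inside macrophages; the read-out is not stated. Tested at 30 µM. Higher reads as stronger inhibition (inferred: compounds with an IC50 in retests scored well above the rest). Size under these conditions: about 69,000 compounds, about 1,000 of them at 50% or above in at least one test.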

The filed quantity is “Percent Effect” (%). The record does not define 0% and 100%; most values in the screen are far below 50% and negative numbers occur (in some assays of this library far below -100). This is an unselected part of the compounds tested. Two or more numbers in one place are separate tests of the same structure; such repeats can differ widely. A dash means the value is not listed here; it may have been measured.

For CC(C)[C@@H]1CN(CC(=O)NCc2ccco2)C[C@H]1NS(=O)(=O)N(C)C the result was T. brucei: -28.65%; Toxoplasma: -2.055%; Leishmania in macrophages: 9.022%.
For O=C(O)C(F)(F)F.O=C(O)C(F)(F)F.[H][C@]12CC(=O)N(Cc3cccc(C)n3)[C@@]1([H])CCN2Cc1cccs1 the result was T. brucei: -5.762%; Toxoplasma: -7.238%; Leishmania in macrophages: 6.701%.
For Cc1nc(C)n(CC2CCCN2CCOc2ccccc2F)n1 (stereo not drawn) the result was Toxoplasma: -15.49%; Leishmania in macrophages: 17.36%.
For COC(=O)CCC(=O)N1CCC2(CN(Cc3cccc(F)c3)C2)C1 the result was T. brucei: -64.48%; Toxoplasma: -2.244%; Leishmania in macrophages: -33.04%.
For CN(Cc1nnc2ccccn12)C(=O)NC1CCCCC1 the result was T. brucei: -64.12%; Toxoplasma: -1.402%; Leishmania in macrophages: 0.6785%.
For CN1CCN(c2ccccc2NC(=O)c2ccco2)CC1 the result was T. brucei: 9.558%; Toxoplasma: -15.46%; Leishmania in macrophages: 13.32%.
For COCCN(C)C[C@H]1C[C@@H](CO)CN(C(=O)c2ccn(C)c(=O)c2)C1 the result was T. brucei: -29.1%; Toxoplasma: -0.9074%; Leishmania in macrophages: -30.58%.
For Cc1csc(CN2CCC[C@]3(C[C@@H](OCC4CC4)CO3)C2)n1.O=C(O)C(F)(F)F the result was T. brucei: -17.53%; Toxoplasma: -37.55%; Leishmania in macrophages: 2.266%.
For CC(=O)NC(C)(C)c1noc(C2(C#N)CCCCC2)n1 the result was T. brucei: -47.16%; Toxoplasma: -3.974%; Leishmania in macrophages: 21.3%.
For O=C(NCCS(=O)(=O)N1CCc2ccccc21)c1c(O)cc(F)cc1F the result was T. brucei: -30.13%; Toxoplasma: -1.595%; Leishmania in macrophages: 23.14%.
For COc1ccc(F)cc1C(C)NC(=O)Nc1nncs1 (stereo not drawn) the result was T. brucei: -25.49%; Toxoplasma: 9.333%; Leishmania in macrophages: -8.182%.
For CN(C)C[C@@H]1CN(C2CCN(c3ccc(Cl)cc3)CC2)C[C@@H]1CO the result was T. brucei: 10.7%; Toxoplasma: -2.411%; Leishmania in macrophages: 93.76%.
For CC(=O)N1CCCN(Cc2csc(-c3ncccn3)n2)CC1 the result was T. brucei: 35.19%; Toxoplasma: 1.056%; Leishmania in macrophages: 33.32%.
For O=C(C1CCCO1)N1CCCC2(CCN(c3cccnc3)CC2)C1.O=C(O)C(F)(F)F (stereo not drawn) the result was T. brucei: -18.02%; Toxoplasma: -12.28%; Leishmania in macrophages: -14.14%.
For [H][C@]12CC[C@]([H])(CN(C(=O)Cc3cccnc3)C1)N(Cc1ccccc1)C2=O the result was T. brucei: -38.95%; Toxoplasma: -4%; Leishmania in macrophages: -4%.
For CC(NC(=O)CNCCn1cccn1)c1ccc2c(c1)OCCO2 (stereo not drawn) the result was T. brucei: 16.37%; Toxoplasma: -0.847%; Leishmania in macrophages: 15.99%.
For CCn1c(N)nc2cc(C(=O)N(C)Cc3cc(C(C)(C)C)n[nH]3)cnc21 the result was T. brucei: -10.59%; Toxoplasma: -19.93%; Leishmania in macrophages: -11.86%.
For COCC1CN(C(=O)COc2ccc(C)cc2)Cc2cn(C)nc21.O=C(O)C(F)(F)F (stereo not drawn) the result was T. brucei: -29.77%; Toxoplasma: -6.998%; Leishmania in macrophages: 14.2% and 4.497%.
For O=C(O)C(F)(F)F.[H][C@@]12OCCN(S(=O)(=O)C3CC3)[C@@]1([H])CC[C@H]2OCCN1CCCC1 the result was T. brucei: -14.63%; Toxoplasma: 5.662%; Leishmania in macrophages: 9.823%.
For CNC(=O)[C@@H]1C[C@@H](NC(=O)c2ccc(OC)o2)CN1Cc1sccc1C the result was T. brucei: -24.96%; Toxoplasma: -6.21%; Leishmania in macrophages: 14.45%.
For Cc1[nH]ccc1C(=O)Nc1cccc(CN2CCC(CO)CC2)c1 the result was T. brucei: -7.604%; Toxoplasma: -1.86%; Leishmania in macrophages: 17.31%.
For [H][C@@]12CCN(S(=O)(=O)C3CC3)[C@@]1([H])CCN2C(=O)c1ccco1 the result was T. brucei: -5.215%; Toxoplasma: 7.979%; Leishmania in macrophages: 11.29%.
For Cc1ccc2cc(C3(O)CCN(C)CC3)ccc2n1 the result was T. brucei: -24.36%; Toxoplasma: 6.531%; Leishmania in macrophages: 9.267%.
For c1ccc(CN2CCC(Cc3noc(C4CC4)n3)CC2)cc1 the result was T. brucei: 1.443%; Toxoplasma: 8.802%; Leishmania in macrophages: 10.39%.
For CCN(Cc1cc(Cl)ccc1OC)Cc1cc(C)nn1C the result was T. brucei: -8.941%; Toxoplasma: -1.427%; Leishmania in macrophages: 17.46%.
For COCCc1noc(CN2CCCCC2Cn2cccn2)n1 (stereo not drawn) the result was T. brucei: 1.937%; Toxoplasma: -11%; Leishmania in macrophages: 33.37%.
For O=C([C@@H]1CCCO1)N1CCn2c(Cn3cccn3)cnc2C1 the result was T. brucei: -16.57%; Toxoplasma: -5.216%; Leishmania in macrophages: -31.95%.
For O=S(=O)(C1CC1)N1CCc2ncc(Cn3cccn3)n2CC1 the result was Toxoplasma: -19.35%; Leishmania in macrophages: -6.309%.
For CC(=O)N(Cc1noc(C2CC2)n1)C1CCN(Cc2nccn2C)C1 (stereo not drawn) the result was T. brucei: -9.289%; Toxoplasma: 2.8%; Leishmania in macrophages: 11.13%.
For CS(=O)(=O)CCOCCNc1ccc(Br)cn1 the result was T. brucei: 2.529%; Toxoplasma: 0.4725%; Leishmania in macrophages: 26.83%.
For O=C(c1cnccn1)N1CCc2ncc(CN3CCOCC3)n2CC1 the result was T. brucei: -96.37%; Toxoplasma: -7.352%; Leishmania in macrophages: 26.89%.
For O=C(O)C(F)(F)F.O=C(O)C(F)(F)F.O=C(O)C(F)(F)F.c1cncc(COCc2cncc3c2CCN(Cc2ccoc2)C3)c1 the result was T. brucei: -60.83%; Toxoplasma: -40.69%; Leishmania in macrophages: 3.293%.
For CN(C)C(=O)CN(C)C(=O)c1csc(Br)c1 the result was T. brucei: -21.76%; Toxoplasma: 8.088%; Leishmania in macrophages: 11.64%.
For CCOC(=O)Cn1c(=O)nc2n1C(=O)N(c1ccccc1)C2 the result was T. brucei: -5.41%; Toxoplasma: -13.39%; Leishmania in macrophages: 21.64%.
For CC(C)N(C)C(=O)C1CCN(Cc2cc3c(cc2O)CCC3)CC1 the result was T. brucei: -26.9%; Toxoplasma: 10.76%; Leishmania in macrophages: 5.915%.
For [H][C@@]12CCN(C[C@@H]1CN1CCCCC1)[C@@H](CNC(=O)c1ccco1)C2 the result was T. brucei: -10.72%; Toxoplasma: -0.129%; Leishmania in macrophages: 17.08%.
For Cn1c(C(=O)NC2CCCC2)nc2c1CCN(Cc1ccccc1)C2 the result was T. brucei: -16.01%; Toxoplasma: -2.156%; Leishmania in macrophages: 1.184%.

The first 5 entries again:

compound,T. brucei,Toxoplasma,Leishmania in macrophages
CC(C)[C@@H]1CN(CC(=O)NCc2ccco2)C[C@H]1NS(=O)(=O)N(C)C,-28.65%,-2.055%,9.022%
O=C(O)C(F)(F)F.O=C(O)C(F)(F)F.[H][C@]12CC(=O)N(Cc3cccc(C)n3)[C@@]1([H])CCN2Cc1cccs1,-5.762%,-7.238%,6.701%
Cc1nc(C)n(CC2CCCN2CCOc2ccccc2F)n1 (stereo not drawn),-,-15.49%,17.36%
COC(=O)CCC(=O)N1CCC2(CN(Cc3cccc(F)c3)C2)C1,-64.48%,-2.244%,-33.04%
CN(Cc1nnc2ccccn12)C(=O)NC1CCCCC1,-64.12%,-1.402%,0.6785%